Results as given in PubChem BioAssay AID1671190 (National Center for Advancing Translational Sciences (NCATS), 2021).
Several values for one entry are separate records, joined by “and”; a condition that tells them apart may be missing. Equal values may be shown once. Out of some 580,000 compounds screened, about 6,100 (1.1%) were called active. The shares of active, inactive and inconclusive entries below differ from those in the screen. Calls follow the shape of the dose curve; as a rule, active = well fitted inhibition curve with a large enough effect; inconclusive = small, poorly fitted or top-dose-only effect, or another doubt; inactive = no such curve, though single readings can be large or run the other way. Potencies beside an inconclusive call are fits to weak or partial responses and may not hold up.

The chains behind the UniProt entries cited, without tags or fusion partners.
UniProt P18054, whole entry, looked up: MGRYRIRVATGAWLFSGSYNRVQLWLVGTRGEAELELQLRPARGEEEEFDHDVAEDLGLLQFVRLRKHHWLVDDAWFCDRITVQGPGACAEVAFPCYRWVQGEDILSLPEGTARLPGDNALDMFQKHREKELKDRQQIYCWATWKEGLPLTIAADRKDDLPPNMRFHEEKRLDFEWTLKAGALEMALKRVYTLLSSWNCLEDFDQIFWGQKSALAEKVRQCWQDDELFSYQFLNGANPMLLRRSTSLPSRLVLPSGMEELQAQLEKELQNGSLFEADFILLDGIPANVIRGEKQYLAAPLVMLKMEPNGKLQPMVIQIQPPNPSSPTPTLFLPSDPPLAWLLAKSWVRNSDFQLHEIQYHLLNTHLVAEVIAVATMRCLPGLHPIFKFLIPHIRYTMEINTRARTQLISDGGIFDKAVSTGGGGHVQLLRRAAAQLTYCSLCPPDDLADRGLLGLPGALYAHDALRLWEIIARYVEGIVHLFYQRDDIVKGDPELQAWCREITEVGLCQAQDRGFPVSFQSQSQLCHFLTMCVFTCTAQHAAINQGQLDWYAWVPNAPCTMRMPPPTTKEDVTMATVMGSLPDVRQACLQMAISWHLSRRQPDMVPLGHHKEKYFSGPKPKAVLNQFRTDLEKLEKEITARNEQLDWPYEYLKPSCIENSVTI

target: Polyunsaturated fatty acid lipoxygenase ALOX12 (Homo sapiens) (UniProt P18054); assay: Primary qHTS assay for inhibitors of human arachidonate 12S-lipoxygenase (ALOX12): Round 2; settings: purified 12hLO, xylenol orange hydroperoxide absorbance; activity change, negative = inhibition: at 108 µM (top of the series) unless noted
How it was run: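 Hydroperoxide product was detected by ferrous iron/xylenol orange as the 573 to 405 nm absorbance ratio. Arachidonic acid at 40 uM (final) was turned over for 30 min at room temperature by 150 nM human 12hLO, pH 7.0 Hepes buffer, after 15 min compound preincubation.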
% is scaled to controls: 0 for no effect and ±100 for the full control effect; potency is read from the fitted curve at half-maximal effect.

Structure (SMILES)	Potency	activity change, negative = inhibition
COc1ccc(CC(=O)NC2=NCCS2)cc1	inconclusive: 56.2 µM [inhibitor, partial curve, poor fit]	
C=CCNC(=S)NC(=O)c1ccc(C)c(Br)c1	active: 35.5 µM	
N#Cc1c(N)[nH]c(C(=O)c2ccccc2)c1-c1ccccc1Br	inconclusive: 70.8 µM [inhibitor, partial curve, poor fit]	
Cc1ccc(C(=O)Nc2ccc3c(c2)OCCO3)cc1		inactive: 0%
COc1ccc(OC)c(NC(=O)CSc2ccc(-c3sc(C)nc3C)nn2)c1		inactive: -23.2%
Cc1nnc(SCC(=O)NC(C)(C)C)n1C1CCCCC1	inconclusive: 89.1 µM [inhibitor, single point]	
O=C(NCCNC(=O)c1cccc2cccnc12)c1cccc2cccnc12		inactive: 5.05%
CCc1cccc(NC(=O)C2CCCN(S(=O)(=O)c3c(C)[nH]c(=O)[nH]c3=O)C2)c1 (centres undefined)		inactive: -23.6%
CC1CCN(S(=O)(=O)c2ccc3c(c2)C(Cl)(Cl)C(=O)N3)CC1	active: 39.8 µM	
Cc1ncccc1C(=O)N1CCCC(C(=O)c2ccc3c4c(cccc24)CC3)C1 (centres undefined)		inactive: -4.58%
Cc1ccc2nc(COc3ccccc3C(=O)O)cn2c1	inconclusive: 35.5 µM [inhibitor, partial curve, poor fit]	
Fc1cccc2sc(Nc3nc4cc5c(cc4s3)OCCO5)nc12		inactive: -2.5%
Cc1c(C(=O)N2CCCCCC2)c(S(=O)(=O)N2CCCc3ccccc32)c(C)n1C		inactive: -4.75%
Cc1cc(C(=O)Oc2ccccc2C(=O)O)c(C)o1	inconclusive: 44.7 µM [inhibitor, partial curve, poor fit]	
C=CCNc1ncnc2c1ncn2[C@H]1CN(Cc2ccccc2)C[C@@H](CO)O1		inconclusive: -31% [inhibitor]
CCCn1nc(C(=O)Nc2nc(C)cs2)c2ccccc2c1=O	inconclusive: 7.08 µM [inhibitor, full curve, poor fit]	
COc1ccc(-c2csc(NC(=S)NC(=O)c3ccc4ccccc4c3)n2)cc1OC	inconclusive: 3.98 µM [inhibitor, full curve]	
CC(=O)Nc1ccccc1OCCCN1CCC(C(O)(c2ccccc2)c2ccccc2)CC1	inconclusive: 31.6 µM [inhibitor, partial curve]	
CCc1ccc(C2C=C(c3ccc(C)cc3)Nc3nnnn32)cc1 (centres undefined)	inconclusive: 39.8 µM [inhibitor, partial curve, poor fit]	
COC(=O)c1ccccc1OS(=O)(=O)c1ccc2c(c1)CCC2	inconclusive: 141 µM [inhibitor, single point]	
COc1ccccc1CCC(=O)Nc1cc(S(=O)(=O)N2CCCCC2)ccc1N1CCN(C)CC1	inconclusive: 44.7 µM [inhibitor, partial curve, poor fit]	
CCc1ccc(C(C)NC(=O)c2cc(C)oc2C)cc1 (centres undefined)	inconclusive: 39.8 µM [inhibitor, partial curve, poor fit]	
CC(=O)C1=C(O)C(=O)NC1c1ccc(F)cc1 (centres undefined)	inconclusive: 2 µM [inhibitor, full curve, poor fit]	

Structure (SMILES)	Potency	activity change, negative = inhibition
O=C(NC1CCCCCC1)c1ccc2ncsc2c1	inconclusive: 100 µM [inhibitor, partial curve, poor fit]	
COC(=O)N/N=C/c1cc(Cl)c(OCc2ccccc2F)c(OC)c1	inconclusive: 100 µM [inhibitor, partial curve, poor fit]	
Cc1cc2oc(=O)cc(CSc3nnc(-c4cccs4)o3)c2cc1C(C)C		inactive: 4.09%
C[C@H](C(=O)N1CCCC1)C1CC[C@@]2(C)Cc3sc(-c4ccccc4)nc3[C@@H](C)[C@@H]2[C@H]1O (some centres undefined)		inactive: 8.51%
Cn1c(SCc2cc(=O)n3cc(Br)ccc3n2)nnc1C1COc2ccccc2O1 (centres undefined)	inconclusive: 50.1 µM [inhibitor, partial curve, poor fit]	
COc1ccccc1NC(=O)COC(=O)CCS(=O)(=O)c1ccc(C)cc1	inconclusive: 35.5 µM [inhibitor, partial curve, poor fit]	
CN(C)Cc1nnc(C2CCCN(C(=O)N3CCOCC3)C2)n1C (centres undefined)	inconclusive: 14.1 µM [inhibitor, full curve]	
c1cc(-c2n[nH]c(-c3ccncc3)n2)ccn1	inconclusive: 44.7 µM [inhibitor, single point]	
CN(C)C(=O)c1ccc(-c2nccc(-n3ccnc3)n2)cc1	active: 22.4 µM	
CCc1nc2c(NS(=O)(=O)c3cccnc3)cccn2n1	inconclusive: 7.94 µM [inhibitor, full curve, poor fit]	
CC(C)(C)NC(=O)c1cccc(NC(=O)c2ccc(Cl)c(Cl)c2)c1	inconclusive: 44.7 µM [inhibitor, partial curve, poor fit]	
Cc1ccc(Cn2nnc3c2-c2ccccc2S(=O)(=O)N(C(C)(C)C)C3)cc1		inactive: 17.6%
COc1cc(C(=O)Nc2ccccc2NS(C)(=O)=O)cc(OC)c1OC		inactive: -3.83%
Cc1ccc(-c2noc([C@@H]3C[C@@H](O)CN3Cc3ccccc3O)n2)cc1F	active: 31.6 µM	
CCOc1ccc(C2CC(c3c(O)n(C4CCCCC4)c(=O)[nH]c3=O)=Nc3ccccc3S2)cc1 (centres undefined)	inconclusive: 89.1 µM [inhibitor, partial curve, poor fit]	
O=C(Cc1ccc(F)cc1)NCc1ccc2c(c1)CCN2C(=O)c1ccc(F)cc1	inconclusive: 50.1 µM [inhibitor, partial curve, poor fit]	
COc1ccccc1N1CCN(CCCCOc2ccc(F)cc2)CC1	inconclusive: 35.5 µM [inhibitor, partial curve, poor fit]	
Cc1ccc(NS(=O)(=O)c2ccc(-n3cccn3)cc2)cc1Cl	inconclusive: 100 µM [inhibitor, single point] and inconclusive: 44.7 µM [inhibitor, partial curve]	
OC(CNCCc1ccc(Cl)cc1)COc1ccc2ccccc2c1 (centres undefined)		inactive: -17.6%
CCOC(=O)N1CCc2c(sc3c2c(=O)n(-c2ccccc2C(F)(F)F)c(=O)n3Cc2ccccc2C)C1		inactive: -8.42%
Cc1ccc(/C=C/C(=O)NCC(C)(C)CNC(=O)/C=C/c2ccc(C)o2)o1	inconclusive: 3.16 µM [inhibitor, full curve, poor fit]	
Cc1ccc(-c2c(C)n([O-])c3c([n+]2=O)CCC3)o1	inconclusive: 158 µM [inhibitor, partial curve, poor fit]	
COc1ccc(C(=O)N2CCC3(CC2)NC(=O)N(c2ccccc2)N3)cc1F	inconclusive: 12.6 µM [inhibitor, full curve, poor fit]	

Copied from the listing (15 entries):
Structure (SMILES)	Potency	activity change, negative = inhibition
C=CCNc1ncnc2c1ncn2[C@H]1CN(Cc2ccccc2)C[C@@H](CO)O1		inconclusive: -31% [inhibitor]
CCCn1nc(C(=O)Nc2nc(C)cs2)c2ccccc2c1=O	inconclusive: 7.08 µM [inhibitor, full curve, poor fit]	
COc1ccc(-c2csc(NC(=S)NC(=O)c3ccc4ccccc4c3)n2)cc1OC	inconclusive: 3.98 µM [inhibitor, full curve]	
CC(=O)Nc1ccccc1OCCCN1CCC(C(O)(c2ccccc2)c2ccccc2)CC1	inconclusive: 31.6 µM [inhibitor, partial curve]	
CCc1ccc(C2C=C(c3ccc(C)cc3)Nc3nnnn32)cc1 (centres undefined)	inconclusive: 39.8 µM [inhibitor, partial curve, poor fit]	
COC(=O)c1ccccc1OS(=O)(=O)c1ccc2c(c1)CCC2	inconclusive: 141 µM [inhibitor, single point]	
COc1ccccc1CCC(=O)Nc1cc(S(=O)(=O)N2CCCCC2)ccc1N1CCN(C)CC1	inconclusive: 44.7 µM [inhibitor, partial curve, poor fit]	
CCc1ccc(C(C)NC(=O)c2cc(C)oc2C)cc1 (centres undefined)	inconclusive: 39.8 µM [inhibitor, partial curve, poor fit]	
CC(=O)C1=C(O)C(=O)NC1c1ccc(F)cc1 (centres undefined)	inconclusive: 2 µM [inhibitor, full curve, poor fit]	
O=C(NC1CCCCCC1)c1ccc2ncsc2c1	inconclusive: 100 µM [inhibitor, partial curve, poor fit]	
COC(=O)N/N=C/c1cc(Cl)c(OCc2ccccc2F)c(OC)c1	inconclusive: 100 µM [inhibitor, partial curve, poor fit]	
Cc1cc2oc(=O)cc(CSc3nnc(-c4cccs4)o3)c2cc1C(C)C		inactive: 4.09%
C[C@H](C(=O)N1CCCC1)C1CC[C@@]2(C)Cc3sc(-c4ccccc4)nc3[C@@H](C)[C@@H]2[C@H]1O (some centres undefined)		inactive: 8.51%
Cn1c(SCc2cc(=O)n3cc(Br)ccc3n2)nnc1C1COc2ccccc2O1 (centres undefined)	inconclusive: 50.1 µM [inhibitor, partial curve, poor fit]	
COc1ccccc1NC(=O)COC(=O)CCS(=O)(=O)c1ccc(C)cc1	inconclusive: 35.5 µM [inhibitor, partial curve, poor fit]	

Continuation:

Structure (SMILES)	Potency	activity change, negative = inhibition
COc1ccccc1CC(=O)Nc1cc(C)ccn1	inconclusive: 112 µM [inhibitor, single point]	
COc1ccc(-n2c(=O)c(CCc3ccccc3)nc3cncnc32)cc1	inconclusive: 31.6 µM [inhibitor, single point]	
O=C(C1=C(O)C(=O)N(CCCn2ccnc2)C1c1ccncc1)c1cc2ccccc2o1 (centres undefined)	inconclusive: 5.01 µM [inhibitor, full curve, poor fit]	
Cc1ccccc1N/N=C1\CCCNC1=O	active: 4.47 µM	
Cc1ccc(C(c2nnnn2CS(=O)(=O)c2ccc(C)cc2)N2CCCC2)cc1 (centres undefined)	inconclusive: 112 µM [inhibitor, single point]	
CC(OC(=O)c1ccc2noc(-c3ccccc3)c2c1)C(N)=O (centres undefined)	inconclusive: 56.2 µM [inhibitor, partial curve, poor fit]	
CCC1=NN(C(=O)c2cccc([N+](=O)[O-])c2)C(O)(c2ccc(C)cc2)C1 (centres undefined)	inconclusive: 50.1 µM [inhibitor, partial curve, poor fit]	
C[N+](C)(CCCCCCCCCC[N+](C)(C)C1CCCCC1)C1CCCCC1	active: 15.8 µM	
CCc1cccc(CC)c1NC(=O)COC(=O)c1cc(OC)c(OC)cc1OC		inactive: 25.6%
Cc1ccc(NC(=O)CC(NCC2CCCO2)C(=O)O)cc1C (centres undefined)		inactive: 0.638%
COC(=O)C1C(=O)C2=C(CC1C)NC(=O)CC2c1cccc(C)c1 (centres undefined)		inactive: -2.23%
Cc1ccc(/C=N/NC(=O)C(c2ccccc2)c2ccccc2)s1		inactive: -2.82%
Cn1nnc(NC(=S)NC(=O)c2cc3ccccc3o2)n1	active: 2.51 µM	
CCN(CC)c1ccc(NC(=S)NCC2CCCO2)cc1 (centres undefined)	inconclusive: 79.4 µM [inhibitor, single point]	
Nc1nc(C2CC(O)C2)cc(N2CCCN(Cc3ccccn3)CC2)n1 (centres undefined)		inactive: 101%
COCCN1CCC(N2CCN(S(=O)(=O)c3cccc(C)c3)CC2)C1=O (centres undefined)		inactive: 72.9%
O=C(CCc1ncc(-c2ccc(Cl)cc2)o1)Nc1ccc2ccccc2c1	inconclusive: 44.7 µM [inhibitor, partial curve, poor fit]	
COc1ccc(/C=C/C(=O)Oc2ccc(C=O)cc2OC)cc1		inactive: 448%
CCC(=O)c1ccc(OCC(=O)OCC(=O)NCC2CCCCC2)cc1	inconclusive: 50.1 µM [inhibitor, partial curve, poor fit]	
Cc1ccc2[nH]c(=O)c(C(c3nnnn3CC3CCCO3)N3CCCc4ccccc43)cc2c1 (centres undefined)	inconclusive: 0.126 µM [inhibitor, full curve, poor fit]	
O=C(COc1ccc(Cl)cc1)Nc1nnc(C2=COCCO2)o1	inconclusive: 0.631 µM [inhibitor, full curve, poor fit]	
O=C(/C=C/c1ccc([N+](=O)[O-])cc1)OCC(=O)c1ccc[nH]1	inconclusive: 89.1 µM [inhibitor, single point]	
Cc1cccc(CC(=O)N2CC3CC(C2)[C@H]2CCCC(=O)N2C3)c1 (some centres undefined)		inactive: 11.9%
